## Primary screen of a compound library

Mtb growth Cornell: 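Whole-cell assay for inhibitors of Mycobacterium tuberculosis growth, labelled Cornell in the record; the read-out is not stated. The concentration is filed as 10 mM, unlikely as a test dose, so the dose is not known. Higher means stronger inhibition (inferred from two other growth screens of the library). Size under these conditions: about 53,000 compounds, about 900 of them at 50% or above in at least one test.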
Mtb heat-shock: 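Assay on Mycobacterium tuberculosis, filed only as a heat shock assay from Cornell; the read-out is not stated. The concentration is filed as 10 mM, unlikely as a test dose, so the dose is not known. Higher reads as stronger inhibition (inferred: compounds with an IC50 in retests scored well above the rest). About 69,000 compounds were tested under these conditions; 1.4% (about 930) showed 50% or more at least once.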

Results are given as percent effect.
The controls that fix the scale are not given in the record; negative values are as filed.
The compounds are a random part of those screened.
A dash means the value is not listed here; it may have been measured.

* NC1CCc2c(ccc(=O)n2Cc2ccncc2)C1 (stereo not drawn) : Mtb heat-shock: -10.83%
* CCCN1CCCn2c(nc(CNC(=O)c3cnoc3C)cc2=O)C1.O=C(O)C(F)(F)F : Mtb heat-shock: -27.02%
* Cn1c(SCC2OCCc3ccccc32)n[nH]c1=O (stereo not drawn) : Mtb growth Cornell: -56.29%; Mtb heat-shock: -6.606%
* Nc1nnc(CCNc2ncnc3c2CCN(C(=O)C2CC2)C3)s1 : Mtb growth Cornell: 6.121%; Mtb heat-shock: -5.298%
* O=C(O)C(F)(F)F.[H][C@@]12CCN(c3ccc(C)nn3)[C@]1([H])CC[C@H](C(=O)N1CCCCO1)O2 : Mtb growth Cornell: 4.687%; Mtb heat-shock: 5.292%
* CCc1[nH]c2c(CNC(=O)C3CCN(C)C3)cc(C)cc2c1C (stereo not drawn) : Mtb growth Cornell: 14.61%; Mtb heat-shock: -1.446%
* [H][C@@]12CCC(=O)N(CCc3ccccc3)[C@]1([H])CCN(c1ncc(F)cn1)C2 : Mtb growth Cornell: -0.1574%; Mtb heat-shock: -3.268%
* O=C(Nc1cncc(Br)c1O)c1ccon1 : Mtb growth Cornell: 105.3%; Mtb heat-shock: -3.526%
* Cc1cccc2sc(NC(=O)CN3CCCC4(CC3)CNC(=O)O4)nc12 (stereo not drawn) : Mtb growth Cornell: 20.47%; Mtb heat-shock: 8.653%
* Cc1ccc(C(=O)NCCNS(C)(=O)=O)c(=O)[nH]1 : Mtb heat-shock: 4.254%
* CCCN(CCC)C(=O)CN(C)Cc1cnc(C)s1 : Mtb growth Cornell: 2.535%; Mtb heat-shock: 15.16%
* [H][C@@]12CNCC[C@]1(O)CCN(C(=O)Cc1ccc(OC)cc1OC)C2 : Mtb growth Cornell: 4.79%; Mtb heat-shock: -43.72%
* C=C(C)Cn1cc(C(N)=O)nc1C1CC1 : Mtb growth Cornell: -8.986%; Mtb heat-shock: -25.23%
* COCc1ccccc1C(=O)NCC(O)c1ccc(Cl)s1 (stereo not drawn) : Mtb growth Cornell: 34.27%; Mtb heat-shock: 11.72%
* CCn1ccnc1CN1CCN(C(C)C(=O)N2CCC(C)CC2)CC1 (stereo not drawn) : Mtb growth Cornell: 11.29%; Mtb heat-shock: -1.645%
* COCCCNC(=O)CN(C)C1CCCN(c2cccnn2)C1 (stereo not drawn) : Mtb growth Cornell: 13.63%; Mtb heat-shock: -13.79%
* CCC(C)(C)n1nnnc1C(c1cccs1)N1CCc2ccccc2C1 (stereo not drawn) : Mtb growth Cornell: 77.94%; Mtb heat-shock: 16.4%
* N[C@H]1CN(C(=O)c2ccc(Cl)cc2F)C[C@@H]1C1CC1 : Mtb growth Cornell: 8.294%; Mtb heat-shock: 8.24%
* Cc1nn(C)c(C)c1CN(Cc1cccn1-c1cccnc1)C(C)C : Mtb growth Cornell: -25.45%; Mtb heat-shock: -8.702%
* COc1cc(N2CCCC(c3ncc[nH]3)C2)ncn1 (stereo not drawn) : Mtb heat-shock: -19.67%
* Cc1nc(C)n(CC2CCCCN2CC(=O)NC(C2CC2)C2CC2)n1 (stereo not drawn) : Mtb heat-shock: 1.797%
* Cc1ncc2c(n1)CN(CC(=O)Nc1ccncc1)CC2 : Mtb growth Cornell: -4.942%; Mtb heat-shock: -0.7073%
* COCc1ncn(Cc2nc(-c3ccco3)oc2C)n1 : Mtb growth Cornell: -6.824%; Mtb heat-shock: 2.568%
* CCN(C(=O)CN1CCC(c2n[nH]c(C3CC3)n2)CC1)C1CC1 : Mtb growth Cornell: -19.13%; Mtb heat-shock: 8.149%
* CN(C)C(=O)CN1CCc2ncnc(C3CC3)c2CC1 : Mtb growth Cornell: -20.13%; Mtb heat-shock: -3.53%
* COCCOc1ncccc1C(=O)N1CCCn2ncnc21 : Mtb growth Cornell: 18.85%; Mtb heat-shock: -8.053%
* Clc1cnccc1N1CCCOCC1 : Mtb heat-shock: -5.139%
* CCS(=O)(=O)N1CC(c2nc(-c3ccsc3)no2)C1 : Mtb growth Cornell: -31.96%; Mtb heat-shock: 5.07%
* CCC1CN(CCC(=O)N(C)C)CCN1CCOC (stereo not drawn) : Mtb growth Cornell: 19.38%; Mtb heat-shock: -0.4541%
* [H][C@]12CCC(=O)N(c3ccccc3)[C@@]1([H])CCN2C(=O)C1CC1 : Mtb growth Cornell: -47.73%; Mtb heat-shock: 17.34%
* CCCNC(=O)CCC(=O)N1CCC(c2n[nH]c(C3CC3)n2)CC1 : Mtb growth Cornell: -39.12%; Mtb heat-shock: -15.38%
* CC(C)COCCC(=O)NCc1cn2cc(Br)ccc2n1 : Mtb growth Cornell: -24.84%; Mtb heat-shock: -34.02%
* Cl.O=C(NCc1ccc(F)cc1)N1CCN(CC(O)C2CC2)CC1 (stereo not drawn) : Mtb heat-shock: -16.95%
* CCn1nc(C)c(NC(=O)c2cc(NC(=O)C(C)C)n(C)n2)c1C : Mtb heat-shock: -23.19%
* CC(C)n1cnnc1CN(C)Cc1cnc(-c2ccccn2)nc1 : Mtb growth Cornell: 10.28%; Mtb heat-shock: 32.7%
* CS(=O)(=O)N1CCC(NCC2(N3CCOCC3)CCCCC2)CC1 : Mtb growth Cornell: 9.865%; Mtb heat-shock: -6.622%
* Cn1nc(Br)c2c(NCCS(N)(=O)=O)ncnc21 : Mtb growth Cornell: -7.438%; Mtb heat-shock: -32.24%
* Cc1cccnc1NC(=O)C1CCCN1Cc1ccccc1 (stereo not drawn) : Mtb growth Cornell: 0.896%; Mtb heat-shock: -5.546%
* CCc1ccccc1OCCN(C)C(=O)CN1CCCC1 : Mtb heat-shock: 30.86%
* CCc1c(C)nc2n(c1=O)CC(C(=O)NCc1cccs1)CS2 (stereo not drawn) : Mtb heat-shock: 6.544%
* Cc1cnn(CC2CCCN2C(=O)Cc2ccc(C)nc2)c1 (stereo not drawn) : Mtb growth Cornell: -13.39%; Mtb heat-shock: -2.089%
* CN(C)[C@@H]1CCN(C(=O)c2cccc(C#N)c2)[C@H]1Cc1cnn(C)c1.O=C(O)C(F)(F)F : Mtb growth Cornell: 24.19%; Mtb heat-shock: 5.533%
* COCCN1CCCc2sc(C(=O)N3CCCN(C)CC3)nc21.O=C(O)C(F)(F)F : Mtb growth Cornell: -28.27%; Mtb heat-shock: -26.22%
* CCn1nnnc1-c1cccc(NC(=O)CCc2cnn(C)c2)c1 : Mtb heat-shock: -19.6%

Repeated from the top, 5 entries:

Compound,Mtb growth Cornell,Mtb heat-shock
NC1CCc2c(ccc(=O)n2Cc2ccncc2)C1 (stereo not drawn),-,-10.83
CCCN1CCCn2c(nc(CNC(=O)c3cnoc3C)cc2=O)C1.O=C(O)C(F)(F)F,-,-27.02
Cn1c(SCC2OCCc3ccccc32)n[nH]c1=O (stereo not drawn),-56.29,-6.606
Nc1nnc(CCNc2ncnc3c2CCN(C(=O)C2CC2)C3)s1,6.121,-5.298
O=C(O)C(F)(F)F.[H][C@@]12CCN(c3ccc(C)nn3)[C@]1([H])CC[C@H](C(=O)N1CCCCO1)O2,4.687,5.292

Source: ChEMBL document CHEMBL3988442, “University of Dundee, Small-Polar-MMV Screening Library” (2021).